In paper PMC5061411:
No constants are given. Whether binding was seen depends on the method and setting. Binding seen in cells or lysates may run through a third protein. Some entries that bind do so weakly or less than the wild type.

Chains of the proteins cited; added tags and fusions are not shown.
UniProt Q9WU70: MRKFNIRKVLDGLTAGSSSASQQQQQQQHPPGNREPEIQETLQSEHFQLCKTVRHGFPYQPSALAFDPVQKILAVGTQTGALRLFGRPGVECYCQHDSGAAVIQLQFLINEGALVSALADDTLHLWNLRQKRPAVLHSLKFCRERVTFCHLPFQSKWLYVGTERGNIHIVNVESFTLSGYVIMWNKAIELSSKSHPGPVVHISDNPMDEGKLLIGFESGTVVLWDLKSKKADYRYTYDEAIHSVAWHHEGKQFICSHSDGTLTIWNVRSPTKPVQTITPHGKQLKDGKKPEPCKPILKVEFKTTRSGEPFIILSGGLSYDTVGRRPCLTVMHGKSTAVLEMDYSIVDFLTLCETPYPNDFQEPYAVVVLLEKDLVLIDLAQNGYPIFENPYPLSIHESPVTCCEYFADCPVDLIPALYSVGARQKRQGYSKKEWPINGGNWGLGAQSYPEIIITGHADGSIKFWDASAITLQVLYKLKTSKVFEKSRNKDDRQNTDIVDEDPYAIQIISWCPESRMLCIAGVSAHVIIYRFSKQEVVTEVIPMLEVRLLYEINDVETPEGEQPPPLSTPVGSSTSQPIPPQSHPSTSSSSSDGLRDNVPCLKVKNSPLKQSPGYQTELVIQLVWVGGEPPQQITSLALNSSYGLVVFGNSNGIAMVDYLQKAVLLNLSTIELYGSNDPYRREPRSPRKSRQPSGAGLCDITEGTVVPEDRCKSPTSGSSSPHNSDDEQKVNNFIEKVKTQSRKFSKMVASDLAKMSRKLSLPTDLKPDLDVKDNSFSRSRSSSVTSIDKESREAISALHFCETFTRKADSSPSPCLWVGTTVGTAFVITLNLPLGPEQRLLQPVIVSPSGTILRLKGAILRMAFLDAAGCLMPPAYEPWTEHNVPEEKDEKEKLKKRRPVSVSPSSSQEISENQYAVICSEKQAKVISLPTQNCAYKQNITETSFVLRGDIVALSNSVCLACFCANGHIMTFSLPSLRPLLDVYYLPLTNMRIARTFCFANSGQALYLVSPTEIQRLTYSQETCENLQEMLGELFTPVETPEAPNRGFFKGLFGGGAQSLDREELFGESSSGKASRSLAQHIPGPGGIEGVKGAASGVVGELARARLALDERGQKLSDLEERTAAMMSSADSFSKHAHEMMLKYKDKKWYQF
UniProt P60881: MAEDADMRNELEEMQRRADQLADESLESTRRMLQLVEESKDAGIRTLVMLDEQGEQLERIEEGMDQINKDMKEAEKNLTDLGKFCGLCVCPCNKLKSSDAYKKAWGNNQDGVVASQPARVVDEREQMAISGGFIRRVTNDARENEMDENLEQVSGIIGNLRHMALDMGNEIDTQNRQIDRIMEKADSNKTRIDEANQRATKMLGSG
UniProt P61265: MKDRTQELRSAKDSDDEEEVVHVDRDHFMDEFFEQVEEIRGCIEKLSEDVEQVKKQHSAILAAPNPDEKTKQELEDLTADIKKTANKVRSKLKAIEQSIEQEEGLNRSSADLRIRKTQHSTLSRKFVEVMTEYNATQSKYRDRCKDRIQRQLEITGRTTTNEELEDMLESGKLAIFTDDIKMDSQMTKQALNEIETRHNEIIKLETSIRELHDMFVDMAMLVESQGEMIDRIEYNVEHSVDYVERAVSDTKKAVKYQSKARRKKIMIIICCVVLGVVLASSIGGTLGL
UniProt P60879: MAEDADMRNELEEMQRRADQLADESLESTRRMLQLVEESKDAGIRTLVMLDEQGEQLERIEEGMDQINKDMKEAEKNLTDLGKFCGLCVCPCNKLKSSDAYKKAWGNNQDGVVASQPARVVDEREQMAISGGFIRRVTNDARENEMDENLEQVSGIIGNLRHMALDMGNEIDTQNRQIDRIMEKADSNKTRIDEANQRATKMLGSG
UniProt P60953: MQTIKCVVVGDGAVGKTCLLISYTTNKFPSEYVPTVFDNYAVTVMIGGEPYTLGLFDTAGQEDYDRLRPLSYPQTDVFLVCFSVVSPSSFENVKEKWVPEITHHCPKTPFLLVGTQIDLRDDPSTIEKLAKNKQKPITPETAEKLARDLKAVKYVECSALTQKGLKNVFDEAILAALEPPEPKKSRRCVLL

What was measured:
[1] = biological target: tomosyn-1 (syntaxin binding protein 5) (rat (endogenous in rat posterior pituitary)) (UniProt Q9WU70); experiment: co-IP; precleared rat posterior pituitary lysate; IP antibodies to tomosyn, SNAP25, syntaxin 1A or syntaxin 1B on protein A/G Sepharose or ImmunoCruz IP matrix, 4°C; control IgG; washed four times with the wash buffer of the in vitro binding assay; western blot
[2] = biological target: SNAP25 (rat (endogenous in rat posterior pituitary)) (UniProt P60881); experiment: as above
[3] = biological target: syntaxin 1B (rat (endogenous in rat posterior pituitary)) (UniProt P61265); experiment: as above
[4] = biological target: GST-SNAP25 (mouse) (UniProt P60879); experiment: pull-down; GST-SNAP25 or GST-cdc42-GTPγS with glutathione Sepharose 4B mixed with precleared rat posterior pituitary lysate overnight at 4°C; washed four times with 10 mM HEPES-NaOH (pH 7.4), 1 mM CaCl2, 50 mM NaCl, 5 mM MgCl2; eluted in SDS sample buffer; silver staining and western blot with anti-tomosyn; only the target purified
[5] = biological target: GST-cdc42-GTPγS (UniProt P60953); experiment: as above

Row | binding [1] | binding [2] | binding [3] | binding [4] | binding [5] | Substance
1 | binds |  |  |  |  | SNAP25 (from UniProt P60881 1-206)
2 | binds |  |  |  |  | syntaxin 1B (from UniProt P61265 1-288)
3 |  | binds | binds | binds | no binding | tomosyn-1 (syntaxin binding protein 5) (from UniProt Q9WU70 1-1152)
